Experimental findings from paper PMC12139522 are described below.

Holding throughout (assay): co-IP; HEK293 cells co-transfected, lysed in RIPA buffer pH 7.4 (50 mM HEPES, 150 mM NaCl, 1% Triton X-100, 1 mM EDTA); anti-Myc or anti-HA agarose beads; western blot
For orientation: In western blotting, separated proteins are transferred to a membrane and probed.

The target in experiment [1] is Myc-TPRN^623–749 (mouse) (UniProt A2AI08).
In experiment [2] the target is Myc-TPRN^411–749 (mouse) (UniProt A2AI08).
Experiment [3] deals with Myc-TPRN^1–170 (mouse) (UniProt A2AI08).
Experiment [4] has as its target Myc-TPRN^1–410 (mouse) (UniProt A2AI08).
Experiment [5] deals with Myc-TPRN^171–410 (mouse) (UniProt A2AI08).
Experiment [6] addresses Myc-TPRN^411–622 (mouse) (UniProt A2AI08).
Experiment [7] concerns the target Myc-TPRN (full-length mouse taperin, N-terminal Myc tag) (mouse) (UniProt A2AI08).

These are yes or no findings as the source states them, for the method shown. Binding seen in cells or lysates may run through a third protein. Some entries that bind do so weakly or less than the wild type. Tags and fused reporters may be left off the sequences shown.

B1: Myc-TPRN^623–749 (domain or fragment, UniProt A2AI08 623-749)
chain: MKISFNDKSLHTTFEYPSESSLAQEEAEEEEEEEGEEDGEEEEVGPDSEKPFTVFLPRATFVSSVGPESSSGLSSYTPKHSMAFSKWQEQTLVQTPTDVELPPKEVMLTPASQNDLSDFRSEPALYF
With B1, in experiment [1], the binding entry is given as “binds”.

B2: Myc-TPRN^411–749 (domain or fragment, UniProt A2AI08 411-749)
chain: VSTVDGAPALEKSPLAAEMQWAVRKGACPRPAISDTDKCVRWQRPASPPPFLPATAEAEPAEGLGVPGLAKNGQEPVRPGLPVTFIDEVDSEEEAFQEAKLPSSAVGVPSQYHLHPARPGHTSELLNRGSNTFTVVPKRKPGTLQEPHLSQTNGQSQQGAEEQDAESLSGPHTTLENTLKKRYPTVHEIEVIGGYLALQKSCLIKAGSSRKKMKISFNDKSLHTTFEYPSESSLAQEEAEEEEEEEGEEDGEEEEVGPDSEKPFTVFLPRATFVSSVGPESSSGLSSYTPKHSMAFSKWQEQTLVQTPTDVELPPKEVMLTPASQNDLSDFRSEPALYF
Turning to B2, the binding entry in experiment [2] is on record as “binds”.

B3: Myc-TPRN^1–170 (domain or fragment, UniProt A2AI08 1-170)
chain: MAGLGRLDPGPRTVMPAWKREILERRRAKLAALSGGQGSGAAPDGPNERLVLAESLGPLSQNPFMRLESERRRGTRPAQQLLELYCRVPGVRTIRADNILIIESAPGFPPAVPPAAGIRAAEVVVYEAPQPGRVSRLLEKFDSPAAPCRRGSPERFRPALPQLPVASASA
B3: the binding entry in experiment [3] is “binds”.

B4: Myc-TPRN^1–410 (domain or fragment, UniProt A2AI08 1-410)
chain: MAGLGRLDPGPRTVMPAWKREILERRRAKLAALSGGQGSGAAPDGPNERLVLAESLGPLSQNPFMRLESERRRGTRPAQQLLELYCRVPGVRTIRADNILIIESAPGFPPAVPPAAGIRAAEVVVYEAPQPGRVSRLLEKFDSPAAPCRRGSPERFRPALPQLPVASASAATRTPTNRSLAPASPVRLSQPAPPISPVPVAQRAGQRSACCEPAHPDGTAGPGARRSDFLQKTGSNSFTVHPRGLPRSAVNRSLSNGPMTQESPTGPANGLSGSPPVPGKWKPKVESKEPSLHPPPSPGTPSATSVGPPAFPAPSPASATPSQRQWVSSATSANDSFEIRPSSKPDMETIPIGDLQARALANLRVNSRNSFVLIPKRKAPGNYPLAGRQFEEPKGEVGWASQSQGLGSQL
In the case of B4, the binding entry in experiment [4] is “binds”.

B5: Myc-TPRN^171–410 (domain or fragment, UniProt A2AI08 171-410)
chain: ATRTPTNRSLAPASPVRLSQPAPPISPVPVAQRAGQRSACCEPAHPDGTAGPGARRSDFLQKTGSNSFTVHPRGLPRSAVNRSLSNGPMTQESPTGPANGLSGSPPVPGKWKPKVESKEPSLHPPPSPGTPSATSVGPPAFPAPSPASATPSQRQWVSSATSANDSFEIRPSSKPDMETIPIGDLQARALANLRVNSRNSFVLIPKRKAPGNYPLAGRQFEEPKGEVGWASQSQGLGSQL
Regarding B5, the binding entry in experiment [5] is “binds”.

B6: Myc-TPRN^411–622 (domain or fragment, UniProt A2AI08 411-622)
chain: VSTVDGAPALEKSPLAAEMQWAVRKGACPRPAISDTDKCVRWQRPASPPPFLPATAEAEPAEGLGVPGLAKNGQEPVRPGLPVTFIDEVDSEEEAFQEAKLPSSAVGVPSQYHLHPARPGHTSELLNRGSNTFTVVPKRKPGTLQEPHLSQTNGQSQQGAEEQDAESLSGPHTTLENTLKKRYPTVHEIEVIGGYLALQKSCLIKAGSSRKK
For the molecule B6, the binding entry in experiment [6] is “binds”.

B7: Myc-TPRN (full-length mouse taperin, N-terminal Myc tag) (protein, UniProt A2AI08 1-749)
chain: MAGLGRLDPGPRTVMPAWKREILERRRAKLAALSGGQGSGAAPDGPNERLVLAESLGPLSQNPFMRLESERRRGTRPAQQLLELYCRVPGVRTIRADNILIIESAPGFPPAVPPAAGIRAAEVVVYEAPQPGRVSRLLEKFDSPAAPCRRGSPERFRPALPQLPVASASAATRTPTNRSLAPASPVRLSQPAPPISPVPVAQRAGQRSACCEPAHPDGTAGPGARRSDFLQKTGSNSFTVHPRGLPRSAVNRSLSNGPMTQESPTGPANGLSGSPPVPGKWKPKVESKEPSLHPPPSPGTPSATSVGPPAFPAPSPASATPSQRQWVSSATSANDSFEIRPSSKPDMETIPIGDLQARALANLRVNSRNSFVLIPKRKAPGNYPLAGRQFEEPKGEVGWASQSQGLGSQLVSTVDGAPALEKSPLAAEMQWAVRKGACPRPAISDTDKCVRWQRPASPPPFLPATAEAEPAEGLGVPGLAKNGQEPVRPGLPVTFIDEVDSEEEAFQEAKLPSSAVGVPSQYHLHPARPGHTSELLNRGSNTFTVVPKRKPGTLQEPHLSQTNGQSQQGAEEQDAESLSGPHTTLENTLKKRYPTVHEIEVIGGYLALQKSCLIKAGSSRKKMKISFNDKSLHTTFEYPSESSLAQEEAEEEEEEEGEEDGEEEEVGPDSEKPFTVFLPRATFVSSVGPESSSGLSSYTPKHSMAFSKWQEQTLVQTPTDVELPPKEVMLTPASQNDLSDFRSEPALYF
Regarding B7, the binding result in experiment [7] is “binds”.
